Results deposited as PubChem BioAssay AID1159579 (Peter MacCallum Cancer Centre, 2015).

Purpose: 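Follow-up screen seeking modulators of motility in lymphatic endothelial cells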 (follow-up of hits)
Cells: human dermal lymphatic endothelial cells
Knock-down reagent: single siRNA against human genes, 25 nM
Measurement: 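Scratch wound imaging measuring area filled by moving cells plus nuclei number, averaged over two wells and scaled to mock-transfected controls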
Scale: migration relative to mock: higher = more migration into the scratch; mean nuclei count: higher = more cells remaining
Rule for the call: 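a ratio of at most 0.6 or at least 1.3 marks altered migration and an active call; a mean nuclei count under 3300 forces an inactive call regardless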
Meaning of the calls: active = migration changed (impaired or accelerated); inactive = no migration change, or too few cells
Here is a random part of about 2,000 deposited reagents. Over the whole deposit, 549 (27%) got an active call. 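Some migration ratios are negative; siRNAs with too few cells are inactive whatever their migration ratio.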 The numbers tell different reagents against one gene apart. Not all columns of the deposit are shown. Not stated in the record: the time to read-out.

SPATS1 #1 gave migration relative to mock 0.7; mean nuclei count 6598; inactive.
Against SPATS1 #2, the values are migration relative to mock 0.74; mean nuclei count 5974; inactive.
SPATS1 #3 gave migration relative to mock 0.73; mean nuclei count 5288; inactive.
With knock-down of SPATS1 #4, the screen gave migration relative to mock 0.29; mean nuclei count 3557; active.
Against TUBA1B #1, the values are migration relative to mock 0.77; mean nuclei count 3276; inactive.
With knock-down of TUBA1B #2, the screen gave migration relative to mock 0.77; mean nuclei count 4380; inactive.
TUBA1B #3 showed migration relative to mock 0.6; mean nuclei count 3794; active.
For TUBA1B #4, the entry reads migration relative to mock 0.44; mean nuclei count 4078; active.

Entries above called active (3):
SPATS1 #4 | migration relative to mock: 0.29; mean nuclei count: 3557; outcome: active
TUBA1B #3 | migration relative to mock: 0.6; mean nuclei count: 3794; outcome: active
TUBA1B #4 | migration relative to mock: 0.44; mean nuclei count: 4078; outcome: active

The list goes on:
Against SOD1 #1 the deposit lists migration relative to mock 0.66; mean nuclei count 6208; inactive.
SOD1 #2 showed migration relative to mock -0.75; mean nuclei count 1700; inactive.
For SOD1 #3, the values are migration relative to mock 1.06; mean nuclei count 5170; inactive.
SOD1 #4 scored migration relative to mock 1.23; mean nuclei count 4600; inactive.
After knock-down of CLIP2 #1, the screen gave migration relative to mock 0.8; mean nuclei count 5872; inactive.
CLIP2 #2 gave migration relative to mock 0.9; mean nuclei count 6264; inactive.
After knock-down of CLIP2 #3, the screen gave migration relative to mock 1.11; mean nuclei count 6265; inactive.
With knock-down of CLIP2 #4, the screen gave migration relative to mock -0.12; mean nuclei count 4270; active.
